Test results reported in article PMC7819943, “Rice protein-binding microarrays: a tool to detect cis-acting elements near promoter regions in rice”.
The list shows a part of the results.

The chains behind the UniProt entries cited, without tags or fusion partners.
UniProt Q0JBA9, entry or part of it: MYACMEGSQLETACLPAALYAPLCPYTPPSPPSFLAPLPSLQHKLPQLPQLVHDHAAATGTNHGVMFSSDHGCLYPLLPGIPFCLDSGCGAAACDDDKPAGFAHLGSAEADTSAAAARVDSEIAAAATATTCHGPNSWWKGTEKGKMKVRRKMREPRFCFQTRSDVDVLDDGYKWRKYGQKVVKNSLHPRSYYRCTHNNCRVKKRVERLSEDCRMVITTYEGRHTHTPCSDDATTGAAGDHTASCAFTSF

target: OsWRKY34 (Oryza sativa, UniProt Q0JBA9 1-250); assay: protein-binding microarray (RPBM); PBS, 2% BSA, 51.3 ng/ul salmon testes DNA, 50 uM zinc acetate, 200 nM TF, 25 C, 1 h; high values mean tight binding; conditions: protein: recombinant; tags: N-terminal polyhistidine and DsRed monomer fusion (pET32a); label: CyDye5-dUTP incorporated in the synthesized complementary strand; 3' TTTTT single-stranded linker to array surface; dsDNA, one strand shown
How it was run: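 Using Ni–NTA, transcription factors fused N-terminally to polyhistidine and DsRed were purified after expression in E. coli BL21-CodonPlus. These were incubated at 200 nM with a blocked, double-stranded custom Agilent array for 1 h at 25 °C in a buffer containing 50 µM zinc acetate, and the array was washed. The binding signal is per-feature fluorescence intensity (arbitrary units) on an Axon 4000B scanner.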

How did the binding signal turn out when “TTGTTTGCTCTAGGTGTTCTGTTGTCCGCAGTTTCAGGTGCGGAGTCACCTAGTGCAG” was run?
The binding signal was 9020 fluorescence intensity (a.u.).

For “TCTTCATTTCCGTGTTCAGCAGCTTTGCAATAATTTCTATCGGAGTCACCTAGTGCAG”, which binding signal is on record?
Its binding signal is 11900 fluorescence intensity (a.u.).

How did the binding signal turn out when “TTGGATTTTGAGGAGGGAGGGAGGGAGTAGGGTTTGGTAACGGAGTCACCTAGTGCAG” was run?
The binding signal was 10900 fluorescence intensity (a.u.).

For “GCTCCGCCGTCTTCGCATCCGTCATCTCCGCCACCGATCCCGGAGTCACCTAGTGCAG”, which binding signal is on record?
The binding signal was 10300 fluorescence intensity (a.u.).

“CTAGCTACCTCTCACACGTACGTAAGGTCACACTAGCCACCGGAGTCACCTAGTGCAG” was tested. Which binding signal did it give?
The binding signal was 10900 fluorescence intensity (a.u.).

“CTTTCATGGTGATTTGCTCTTCTTGTTTGCATGCATGCACCGGAGTCACCTAGTGCAG” was tested. Which binding signal did it give?
The binding signal was 9390 fluorescence intensity (a.u.).

Which binding signal does the source give for “CTCTCTCTCGATCCCGTCTCGTCTCGTCAGTCTGCACCCGCGGAGTCACCTAGTGCAG” here?
Its binding signal is 8840 fluorescence intensity (a.u.).

Which binding signal does the source give for “CCATCCTGTAAAGTCATAACTTCCTAACTCCATATTGTCTCGGAGTCACCTAGTGCAG” here?
The binding signal was 8780 fluorescence intensity (a.u.).

Which binding signal does the source give for “ACTTTTTTAGCATCAAATTCTCATATCTTGACTTTTTTTACGGAGTCACCTAGTGCAG” here?
Its binding signal is 9380 fluorescence intensity (a.u.).

How did the binding signal turn out when “TACTTTTTTGTCATACTGCACACTTGAAACACCTAAATATCGGAGTCACCTAGTGCAG” was run?
Its binding signal is 9940 fluorescence intensity (a.u.).

Which binding signal does the source give for “GACCTAATCCGCACCATAATCACATCTCCAGCTCAATCATCGGAGTCACCTAGTGCAG” here?
The binding signal was 8110 fluorescence intensity (a.u.).

“TCGCACGCCCACGCCCACGCACTTCCCGCCGCTCGCGGGTCGGAGTCACCTAGTGCAG” was tested. Which binding signal did it give?
The binding signal was 9170 fluorescence intensity (a.u.).

For “CCCCGATCGCCTAGCTGGTCTCTATAGATAGCACATCCAACGGAGTCACCTAGTGCAG”, which binding signal is on record?
The binding signal was 9610 fluorescence intensity (a.u.).

For “TATGATCATCCATTGTGTGCTAGCACAATTCGTATTTCATCGGAGTCACCTAGTGCAG”, which binding signal is on record?
The binding signal was 9520 fluorescence intensity (a.u.).

For “ATATATCTCGTTTCGTTCAGTTCGTGTGCCTATAAATACGCGGAGTCACCTAGTGCAG”, which binding signal is on record?
Its binding signal is 8370 fluorescence intensity (a.u.).

“ACGTGGTAGTCAAGGTGTGCTTCGTTTACTATTTAACTGCCGGAGTCACCTAGTGCAG” was tested. Which binding signal did it give?
Its binding signal is 9950 fluorescence intensity (a.u.).

“GGTGTAGGCGGAGGTGGATGGTGGAGGCGGCGCGTGCCGTCGGAGTCACCTAGTGCAG” was tested. Which binding signal did it give?
Its binding signal is 8830 fluorescence intensity (a.u.).

Which binding signal does the source give for “GTCAGCTGTCGATTTTTTTTCTTCTCAGCAATGAGGTTTTCGGAGTCACCTAGTGCAG” here?
Its binding signal is 9470 fluorescence intensity (a.u.).

“TGATCTGCATCTGGGTTTTCTCCTCTCATCTCACCTCTCTCGGAGTCACCTAGTGCAG” was tested. Which binding signal did it give?
The binding signal was 9000 fluorescence intensity (a.u.).

Which binding signal does the source give for “CTCGCGTGTCGTTCCCTATAGGAAAACCCTCTTTATCAATCGGAGTCACCTAGTGCAG” here?
The binding signal was 8570 fluorescence intensity (a.u.).

Which binding signal does the source give for “TTTTTTTTTTTTGTTTTCCCCTTCCGGTCGTTGTGGCGAACGGAGTCACCTAGTGCAG” here?
The binding signal was 8870 fluorescence intensity (a.u.).

“TCAGATCTAGAAGCTCATCGTTGCTATTGTCCTGCTTCTCCGGAGTCACCTAGTGCAG” was tested. Which binding signal did it give?
The binding signal was 9670 fluorescence intensity (a.u.).

With “GCGCCCTTTTTTCCGTCTCATTTAACCCCACACCAACTGTCGGAGTCACCTAGTGCAG” as the sequence, how does the binding signal read?
The binding signal was 9730 fluorescence intensity (a.u.).

How did the binding signal turn out when “AGTCTGTAACCTTGTATGTTTGAACATGGTCAAACGATGACGGAGTCACCTAGTGCAG” was run?
Its binding signal is 12400 fluorescence intensity (a.u.).

For “TCCCAATCCCTGATTCTACTCTCTTGATTGTATCCTTAGGCGGAGTCACCTAGTGCAG”, which binding signal is on record?
The binding signal was 8790 fluorescence intensity (a.u.).

With “ATCTTCTTTTTTTTTCCCGTTATCAGACTAGAGGCAAATACGGAGTCACCTAGTGCAG” as the sequence, how does the binding signal read?
Its binding signal is 10100 fluorescence intensity (a.u.).

How did the binding signal turn out when “TCTAGCCCTTGTATTCCTCCATCTTCCACCCCAAAACCTTCGGAGTCACCTAGTGCAG” was run?
Its binding signal is 9260 fluorescence intensity (a.u.).

Which binding signal does the source give for “TTTTTCTTGCTGATCGAACATTCCCTTTTGTTTTCTATTACGGAGTCACCTAGTGCAG” here?
Its binding signal is 11300 fluorescence intensity (a.u.).

For “TCACCGACACTCCATCCTCTTCTTCACAGGCACTCAATGCCGGAGTCACCTAGTGCAG”, which binding signal is on record?
The binding signal was 9600 fluorescence intensity (a.u.).

With “TATGCTGAAATCTCTAATTCCGCTCTTTCAATCTGTTGCACGGAGTCACCTAGTGCAG” as the sequence, how does the binding signal read?
The binding signal was 8140 fluorescence intensity (a.u.).

How did the binding signal turn out when “TAGGGTTTATGTGCGTGTGTTCATAGGGGTGAGTGCGCGTCGGAGTCACCTAGTGCAG” was run?
Its binding signal is 8950 fluorescence intensity (a.u.).

Which binding signal does the source give for “ACCATATCCACTTGTTTTCCTCTCCTCTCTCTCTCTCTCTCGGAGTCACCTAGTGCAG” here?
Its binding signal is 9370 fluorescence intensity (a.u.).

With “ATATATAACCTCGTATCTTCCGCGTTTTGTATTCTTCGTTCGGAGTCACCTAGTGCAG” as the sequence, how does the binding signal read?
Its binding signal is 11900 fluorescence intensity (a.u.).

“GTATTTTCCTCCTAGTTCGTCTTCACTTCCCGCCCGAGCGCGGAGTCACCTAGTGCAG” was tested. Which binding signal did it give?
Its binding signal is 9830 fluorescence intensity (a.u.).

How did the binding signal turn out when “AACGTTCGATGTGACAATAAAAAATTTTGGGTGGGATTTACGGAGTCACCTAGTGCAG” was run?
Its binding signal is 9640 fluorescence intensity (a.u.).

Which binding signal does the source give for “ACTCCATTGCCTATAAATCACACGTACTAACTGGCGGGGTCGGAGTCACCTAGTGCAG” here?
Its binding signal is 9920 fluorescence intensity (a.u.).

With “CATATGTCAACCACTGTTGTCGCGTCAGCAATATTGCATACGGAGTCACCTAGTGCAG” as the sequence, how does the binding signal read?
Its binding signal is 9880 fluorescence intensity (a.u.).

“AAGTGTACCCTTTTACTGTTCACCCGGAACCTTCCAGAGACGGAGTCACCTAGTGCAG” was tested. Which binding signal did it give?
Its binding signal is 8270 fluorescence intensity (a.u.).

“ACACCGCCATATAGGCGCCACGTCAGCCAAAACCGCTTCCCGGAGTCACCTAGTGCAG” was tested. Which binding signal did it give?
Its binding signal is 9540 fluorescence intensity (a.u.).

For “CTTTTTAAACTTCGTTAGCTAACGCCTGTCTAAATTGCACCGGAGTCACCTAGTGCAG”, which binding signal is on record?
The binding signal was 8110 fluorescence intensity (a.u.).

“ACACTCTGCTGCATCTCTTATCCCTTCATCTCGGTCTTAACGGAGTCACCTAGTGCAG” was tested. Which binding signal did it give?
Its binding signal is 16600 fluorescence intensity (a.u.).

Which binding signal does the source give for “AAAATAGTCACCGACTCACGTATAAATACACCTCGCCCGCCGGAGTCACCTAGTGCAG” here?
Its binding signal is 10500 fluorescence intensity (a.u.).
